A: 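Enzyme assay of the thioesterase domain of polyketide synthase 13; the read-out is not stated. Target: Polyketide synthase Pks13, Mycobacterium tuberculosis (UniProt I6X8D2). Compounds at 30 µM. The record gives no direction; the compounds picked for IC50 retests had high values, so higher reads as stronger inhibition. Of about 67,000 compounds tested this way, about 300 (0.46%) reached 50% or more in at least one test.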
B: 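Enzyme assay of the cytosolic lysyl-tRNA synthetase in 384-well plates, read by luminescence. Target: Lysine-tRNA ligase, Plasmodium falciparum 3D7 (UniProt Q8IDJ8). Compounds at 30 µM. Higher reads as stronger inhibition, judged from the few compounds that gave an IC50. About 69,000 compounds were tested under these conditions; 0.071% (about 49) showed 50% or more at least once.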
C: 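Enzyme assay of CoaBC with a phosphate dye (Biomol Green) read at 650 nm. Target: Coenzyme A biosynthesis protein CoaBC, Mycobacterium tuberculosis (UniProt P9WNZ1). Tested at 30 µM. Direction is inferred from only a few compounds that gave an IC50; most scored high, so higher reads as stronger inhibition. Most strong results did not repeat in a second test. Size under these conditions: about 67,000 compounds, about 40 of them at 50% or above in at least one test.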

The chains behind the UniProt entries cited, without tags or fusion partners. Residues count along the entry.
UniProt I6X8D2, whole entry: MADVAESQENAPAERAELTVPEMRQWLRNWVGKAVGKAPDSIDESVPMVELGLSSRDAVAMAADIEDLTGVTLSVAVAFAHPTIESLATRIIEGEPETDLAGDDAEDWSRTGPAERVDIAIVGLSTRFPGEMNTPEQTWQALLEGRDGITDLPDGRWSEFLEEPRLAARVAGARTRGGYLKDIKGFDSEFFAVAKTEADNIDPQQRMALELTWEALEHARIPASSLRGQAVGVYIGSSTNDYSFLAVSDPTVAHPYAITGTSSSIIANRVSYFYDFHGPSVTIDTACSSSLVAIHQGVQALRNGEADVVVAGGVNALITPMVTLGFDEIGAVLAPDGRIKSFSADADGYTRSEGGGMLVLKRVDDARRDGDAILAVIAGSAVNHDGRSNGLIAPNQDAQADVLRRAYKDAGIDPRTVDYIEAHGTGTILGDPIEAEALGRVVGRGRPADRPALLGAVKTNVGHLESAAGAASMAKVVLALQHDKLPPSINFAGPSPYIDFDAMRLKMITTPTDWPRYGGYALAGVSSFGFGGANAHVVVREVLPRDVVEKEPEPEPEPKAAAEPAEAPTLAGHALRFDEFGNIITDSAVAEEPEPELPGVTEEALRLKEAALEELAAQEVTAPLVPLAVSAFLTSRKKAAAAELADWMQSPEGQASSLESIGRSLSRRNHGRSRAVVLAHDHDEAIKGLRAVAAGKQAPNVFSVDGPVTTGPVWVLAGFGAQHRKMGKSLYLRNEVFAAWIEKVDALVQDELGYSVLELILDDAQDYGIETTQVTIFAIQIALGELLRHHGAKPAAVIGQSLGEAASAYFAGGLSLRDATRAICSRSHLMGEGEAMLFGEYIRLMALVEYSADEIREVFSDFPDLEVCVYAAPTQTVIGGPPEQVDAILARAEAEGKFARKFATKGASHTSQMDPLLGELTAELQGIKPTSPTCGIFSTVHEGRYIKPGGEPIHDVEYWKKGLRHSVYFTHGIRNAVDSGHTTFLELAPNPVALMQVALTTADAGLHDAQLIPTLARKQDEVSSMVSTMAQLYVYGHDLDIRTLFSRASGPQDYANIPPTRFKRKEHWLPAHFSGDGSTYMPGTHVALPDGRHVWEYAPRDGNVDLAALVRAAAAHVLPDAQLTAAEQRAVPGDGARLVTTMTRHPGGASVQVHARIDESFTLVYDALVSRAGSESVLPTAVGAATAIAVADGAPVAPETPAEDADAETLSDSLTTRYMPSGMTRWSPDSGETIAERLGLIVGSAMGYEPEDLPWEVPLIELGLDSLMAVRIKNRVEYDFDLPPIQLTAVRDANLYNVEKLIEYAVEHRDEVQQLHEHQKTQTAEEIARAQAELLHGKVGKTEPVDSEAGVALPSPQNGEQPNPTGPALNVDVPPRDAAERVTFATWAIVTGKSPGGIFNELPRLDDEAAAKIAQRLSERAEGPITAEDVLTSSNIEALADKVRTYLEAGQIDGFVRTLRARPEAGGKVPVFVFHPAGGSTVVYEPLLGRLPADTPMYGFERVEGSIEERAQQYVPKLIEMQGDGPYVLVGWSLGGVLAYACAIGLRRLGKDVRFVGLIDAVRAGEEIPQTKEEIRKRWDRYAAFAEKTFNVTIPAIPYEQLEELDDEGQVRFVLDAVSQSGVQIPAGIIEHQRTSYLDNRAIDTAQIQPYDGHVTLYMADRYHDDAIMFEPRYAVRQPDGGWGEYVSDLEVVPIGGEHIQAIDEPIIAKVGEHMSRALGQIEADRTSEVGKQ
UniProt Q8IDJ8, 1-583: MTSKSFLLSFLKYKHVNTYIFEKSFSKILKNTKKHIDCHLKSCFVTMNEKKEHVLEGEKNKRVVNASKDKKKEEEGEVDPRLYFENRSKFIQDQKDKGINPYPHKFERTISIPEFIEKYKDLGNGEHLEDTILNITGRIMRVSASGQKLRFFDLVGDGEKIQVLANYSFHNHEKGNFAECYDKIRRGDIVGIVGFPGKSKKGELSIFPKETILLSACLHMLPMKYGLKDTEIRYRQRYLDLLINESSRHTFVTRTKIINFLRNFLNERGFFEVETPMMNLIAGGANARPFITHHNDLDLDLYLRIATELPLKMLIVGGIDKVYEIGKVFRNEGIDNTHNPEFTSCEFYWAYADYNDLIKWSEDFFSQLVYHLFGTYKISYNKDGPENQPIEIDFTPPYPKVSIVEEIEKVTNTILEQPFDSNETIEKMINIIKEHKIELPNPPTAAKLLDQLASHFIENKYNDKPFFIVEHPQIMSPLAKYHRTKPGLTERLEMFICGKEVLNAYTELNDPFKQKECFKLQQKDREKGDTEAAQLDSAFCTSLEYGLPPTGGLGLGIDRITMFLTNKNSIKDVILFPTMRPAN
UniProt P9WNZ1, whole entry: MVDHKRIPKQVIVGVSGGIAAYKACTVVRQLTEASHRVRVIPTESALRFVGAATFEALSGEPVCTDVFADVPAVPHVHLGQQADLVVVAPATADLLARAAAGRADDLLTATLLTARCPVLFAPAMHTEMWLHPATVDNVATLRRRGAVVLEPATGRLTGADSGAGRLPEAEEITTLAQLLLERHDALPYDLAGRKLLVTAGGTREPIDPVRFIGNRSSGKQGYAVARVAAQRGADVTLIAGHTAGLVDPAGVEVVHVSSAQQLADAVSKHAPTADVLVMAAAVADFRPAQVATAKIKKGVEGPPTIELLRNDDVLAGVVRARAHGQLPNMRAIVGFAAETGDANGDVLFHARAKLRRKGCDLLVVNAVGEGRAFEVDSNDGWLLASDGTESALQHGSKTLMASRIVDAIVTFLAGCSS

The filed quantity is “Percent Effect” (%).
The controls that fix the scale are not given in the record; negative values are as filed.
The compounds are a random part of those screened.
A dash means the value is not listed here; it may have been measured.

compound | A | B | C
O=C(Cn1nc(-c2ccc(F)cc2)oc1=O)NCC1CCCO1 (centres undefined) | -18.51 | 6.85 | 5.481
CCN(Cc1c(F)cccc1F)C(=O)c1ccncc1O | -19.17 | 1.262 | -3.984
Cc1cnn(CCNc2ncnc3c2CCN(CC2CCOC2)CC3)c1 (centres undefined) | -37.62 | -2.636 | -5.372
CN(C)C(=O)c1cc2ncc(C(=O)NC3CCCC3)cc2n1C | 15.94 | 4.044 | 2.913
Cc1nc(N2CCCC2)ncc1-c1cc(O)n2ncnc2n1 | -13.03 | -0.04825 | 12.24
CCCS(=O)(=O)N1CCc2nc(N3CCOCC3)nc(N(C)C)c2C1 | -2.942 | 6.186 | -
O=C1COc2cc(S(=O)(=O)NCCC3=CCCCC3)c(Br)cc2N1 | -4.291 | 3.093 | -4.234
O=C(CNC(=O)Nc1c(F)cccc1Oc1ccccc1)NC1CC1 | -33 | 1.731 | 4.147
CN(C1CCCC1)C(C)(C)C(=O)NCCNC(N)=O | -27.68 | 3.692 | 5.433
CS(=O)(=O)N[C@@H]1CN(Cc2ccccc2)C[C@H]1O | 7.352 | 0.08781 | 13.7
NCCO[C@H]1C[C@@H](O)C12CCN(C(=O)CCOc1ccccc1)CC2 | -15.5 | 4.115 | 1.535
CCc1ncc(CN2CCCC3(CCC(=O)N(CCC(C)C)C3)C2)cn1 (centres undefined) | -3.336 | -2.298 | 7.592
O=C(c1ccccc1F)N1CCCn2c(CN3CCCCC3)nnc2C1 | - | 0.8226 | 3.585
Cc1nc([C@@H]2C[C@@H]3CCN(C(=O)Cc4cccc(F)c4)C[C@H]3O2)no1 | -20.72 | 2.554 | 1.681
CSc1cccc(CNC(=O)[C@H]2CNC[C@H](C(=O)N3CCOCC3)C2)c1 | -6.136 | 3.979 | -14.5
CCN1CC2(CC1=O)CN(Cc1ccccn1)CCN(C(C)=O)C2 (centres undefined) | -16.99 | 1.447 | 2.118
CNC(=O)C1(c2cnccn2)CCCN1C(=O)c1ncccc1C (centres undefined) | 5.405 | 4.002 | -1.225
O=C(c1ccccc1)N1CCN(CC(O)c2ccc(F)cc2)CC1 (centres undefined) | -3.833 | -0.2768 | 6.378
CC(C)CS(=O)(=O)NC(=O)c1ccc2c(c1)ncn2C | -27.44 | 3.53 | 4.854
Cc1ccc(C(O)CNC(=O)NCc2nc(C)cs2)cc1 (centres undefined) | -7.248 | 0.555 | -2.772
C=C(C)CN1CCC(NC(=O)NCCc2cccc(C(N)=O)c2)CC1 | -27.64 | 2.241 | 1.282
COc1ccc2nnc(CCCC(=O)NCc3ccccc3)n2n1 | 13.07 | 3.102 | 12.71
CNC(=O)c1ccccc1-c1ccc(S(C)(=O)=O)cc1 | 13.26 | 1.777 | 4.369
O=S(=O)(Cc1ccccc1CN1CCOCC(O)C1)c1ccccc1 (centres undefined) | -8.002 | -2.964 | -1.599
Cc1ccc2cc(C(=O)N3CCN(C(=O)c4ccoc4)CC3)[nH]c2c1 | 5.731 | 3.961 | -0.2481
Cc1nc(CC(=O)N2CCN(CCOc3ccccc3)CC2)cs1 | -9.214 | 11.19 | -6.11
CN1CCN(C[C@@H]2CN(C(=O)CC3CCCCC3)C[C@@H]2CO)CC1 | -18.07 | 2.776 | 4.061
CCn1cnnc1CNC(=O)c1cc(Cl)c(I)cc1OC | -21.97 | -0.37 | 6.997
Cc1nnc(NC(=O)NCc2ccc(N3CCC(C)CC3)nc2)s1 | -12.54 | 1.494 | 5.257
Cc1c(Cl)c(C(=O)NC(C)CN2CCOCC2)nn1C (centres undefined) | -2.357 | 3.976 | 0.7653
CCc1cnc(N)nc1NCCn1cc(Cl)cn1 | -37.63 | 1.313 | -8.351
CN1CCN(Cc2cccc(NCc3cc[nH]n3)c2)CC1 | -18.46 | 0.2096 | -18.95
Cc1nn(C)c(C)c1OCC(=O)NCC(O)c1ccsc1 (centres undefined) | -19.4 | 4.233 | -7.631
CCCC(NC(=O)c1cc(C)c(F)cc1F)c1nnn[nH]1 (centres undefined) | -15.82 | 3.111 | -3.719
COC(=O)N1CCC(CNC(=O)C2CCN(S(C)(=O)=O)CC2)CC1 | 3.672 | -1.884 | 4.198
CNC(=O)c1cccnc1NCCOc1ccc(CC#N)cc1 | -21.27 | -2.131 | -13.91
CC(C)C1CN(S(=O)(=O)N2CCCC2)CCCN1Cc1ccc(F)cc1 (centres undefined) | -15.46 | 4.147 | -4.839
O=S(=O)(CCN1CCN(c2ccccc2O)CC1)c1ccc(Cl)cc1 | -2.154 | 4.679 | 17.83
O=C1COc2ccccc2N1CCCn1cnnn1 | -19.26 | 19.55 | 8.855
Cc1cc(CN(C)C(=O)c2ccc(OCC(F)(F)F)nc2)no1 | -10.37 | 0.3286 | 0.5222
COCC(=O)N[C@H](C(=O)NC(C)c1cc(C)ccc1C)C(C)C (some centres undefined) | - | -0.5041 | 12.7
O=C(c1cc(=O)n(-c2ccccc2)[nH]1)N1CCOCC(O)C1 (centres undefined) | -8.158 | 7.006 | 6.157
COC(=O)c1ccc(C2SCC(=O)Nc3ccsc32)cc1 (centres undefined) | - | 1.268 | 4.925
Cc1nn(-c2ccccc2)c(C)c1CNC(=O)NC1CC(=O)N(C)C1 (centres undefined) | -15.27 | 1.333 | 2.723
CCOC1CC2(CCN(Cc3cccn3C)CC2)C1 | - | -1.278 | -8.497
COc1cc(C#N)ccc1OCC(=O)NS(=O)(=O)c1ccccc1 | 5.972 | 3.742 | -3.037
O=S(=O)(NCCc1nc(-c2cccnc2)n[nH]1)NCc1ccccc1 | 18.11 | 4.789 | -0.9828
CNc1nc(N2CCN(C3CCCCC3)C(CCO)C2)nc2c1CCC2 (centres undefined) | -23.21 | 7.582 | -10
Cc1ccc(CN(C)C(=O)CN2CCCC(Cn3cncn3)C2)o1 (centres undefined) | -16.75 | -0.05533 | -0.2389
O=C(CN1CCCS(=O)(=O)CC1)NCc1ccccc1F | 39.92 | 4.954 | 5.952
O=C(c1ccoc1)N1CCn2cnc(COCC3CC3)c2C1 | -0.23 | -2.205 | 3.832
CS(=O)(=O)N1CCCN(CCCSCc2ccccc2)CC1 | -38.96 | 0.26 | -10.43
COCc1cc(NCc2ccccc2OC)ncn1 | -49.75 | -0.8697 | -
Cc1nccn1CCCC(=O)N1CCC(Nc2cccnn2)CC1 | -25.75 | 3.01 | 0.3559
COc1ccc(OC)c(NC(=O)NCC(O)c2ccc(F)c(F)c2)c1 (centres undefined) | -8.503 | 4.476 | 7.05
Cn1nccc1CNC(=O)Nc1cc(C(F)(F)F)c[nH]c1=O | - | 4.814 | 1.596
CCn1cc(CN2CCCN(C(=O)c3ccccc3OC)CC2)cn1 | -21.11 | 0.9347 | 1.828
CCC(NC(=O)NCC(=O)Nc1ccc(F)cc1)c1ccncc1 (centres undefined) | 5.131 | 3.507 | 3.289
O[C@@H]1C[C@@](CNCc2cccc(Cl)c2)(COc2cccnc2)C[C@@H]1O | -1.288 | 3.48 | -6.402
CCCc1nnc([C@H]2CCN(Cc3ncc[nH]3)C2)o1 | -19.88 | 7.644 | 1.58
Cc1nc(CN2CCC3(CCCO3)CCC2=O)no1 (centres undefined) | -27.27 | 7.63 | 3.085
Cc1nc(N(C)C)nc(NCCc2cnccn2)c1C | -10.83 | 6.268 | 1.157
Cc1ncc(CN2CCC(n3cc(-c4ccc(F)cc4)nn3)CC2)cn1 | -0.3395 | 3.363 | -27.47
O=C(Cn1cccn1)NCC1(c2ccccc2)CC1 | - | -2.317 | -1.795

The first 5 entries again:

| compound | A | B | C |
|---|---|---|---|
| `O=C(Cn1nc(-c2ccc(F)cc2)oc1=O)NCC1CCCO1` (centres undefined) | -18.51 | 6.85 | 5.481 |
| `CCN(Cc1c(F)cccc1F)C(=O)c1ccncc1O` | -19.17 | 1.262 | -3.984 |
| `Cc1cnn(CCNc2ncnc3c2CCN(CC2CCOC2)CC3)c1` (centres undefined) | -37.62 | -2.636 | -5.372 |
| `CN(C)C(=O)c1cc2ncc(C(=O)NC3CCCC3)cc2n1C` | 15.94 | 4.044 | 2.913 |
| `Cc1nc(N2CCCC2)ncc1-c1cc(O)n2ncnc2n1` | -13.03 | -0.04825 | 12.24 |

Measurements from “University of Dundee, Small-Polar-MMV Screening Library” (2021), ChEMBL document CHEMBL3988442.